# Reference: PubChem BioAssay AID344 (DTP/NCI, 2004)
# The list is a part of this screen's results and no random one: it gathers tests that were run many times, whatever their T/C, doses with no T/C, and many T/C values between a quarter and a half above the control. Other doses and runs of a compound stand elsewhere. T/C is the treated group as % of the vehicle group. Some entries give survivors of the animals treated and no T/C: the source holds a T/C of zero for them, seemingly a mark for toxic or unscored doses. Some survivor counts are full or nearly so, which does not show that the dose was tolerated: survival well below the control is almost never listed, so the zero probably covers shortened survival too. Counts of survivors are from the toxicity check (mostly the fifth day) where no day follows; animals may have died later. Schedules are NCI's codes, taken here to give the interval after Q, in days (D) or hours (H), and the number of doses after X. Additions like (4×) say how often a value occurs here. For survival time, this PubChem deposit counts one and a half times the control or more as active, and values a quarter to a half above the control carry no call in these data; other NCI protocols may use other cut-offs. Some T/C values are followed by the survivors on the day toxicity was checked, most often the fifth; where none is given, no animal had died by that day. Some entries hold several experiments; the results are listed from low to high. Some schedules carry Z or #; the key to these is not given.
# Test system: mice, LPC-1 plasma cell tumor ip, median survival T/C
# Assay: NCI In Vivo Anticancer Drug Screen. Data for tumor model Lieberman Plasma Cell No. 1 (LPC-1) (intraperitoneal) in unknown mice
# Settings: T/C endpoint: median survival time, vehicle: saline, higher T/C = longer survival
# Method: The antitumor activity of compounds was measured in mice bearing transplantable tumors. Survival or tumor size were measured and the results are expressed as the measurement made in the treated group (T) divided by the measurement made in the vehicle treated control group (C). The tumor model used in this assay is Lieberman Plasma Cell No. 1 (LPC-1) (intraperitoneal) in unknown mice
# [1] = dose: 14.0 mg/kg/injection, schedule: Q01DX028 (sc)
# [2] = dose: 23.0 mg/kg/injection, schedule: Q01DX028 (sc)
# [3] = dose: 39.0 mg/kg/injection, schedule: Q01DX028 (sc)
# [4] = dose: 60.0 mg/kg/injection, schedule: Q01DX028 (sc)
# [5] = dose: 65.0 mg/kg/injection, schedule: Q01DX028 (sc)
# [6] = dose: 8.4 mg/kg/injection, schedule: Q01DX028 (sc)
smiles,measurement,setting,value
O=P1(N(CCCl)CCCl)NCCCO1 (centres undefined),T/C,"dose: 6.25 mg/kg/injection, schedule: Q01DX028 (sc)",132 % of control
same,T/C,"dose: 7.8 mg/kg/injection, schedule: Q01DX010 (sc)",140 % of control
same,T/C,"dose: 8.0 mg/kg/injection, schedule: Q01DX028 (sc)",129 % of control
same,T/C,"dose: 10.0 mg/kg/injection, schedule: Q01DX028 (sc), evaluated on day 72",182 % of control
same,T/C,"dose: 10.0 mg/kg/injection, schedule: Q01DX028 (sc), evaluated on day 90",183 (2×) and 211 % of control
same,T/C,"dose: 10.0 mg/kg/injection, schedule: Q01DX028 (sc), run until all animals had died","100, 143, 177, 184, 197 (2×), 200, 202 [7 of 8 alive], 212 % of control [7 of 8 alive]"
same,T/C,"dose: 12.5 mg/kg/injection, schedule: Q01DX015 (sc)",144 % of control [7 of 8 alive]
same,T/C,"dose: 12.5 mg/kg/injection, schedule: Q01DX028 (sc), evaluated on day 48",184 and 192 % of control
same,T/C,"dose: 12.5 mg/kg/injection, schedule: Q01DX028 (sc), evaluated on day 53",183 % of control [7 of 8 alive]
same,T/C,"dose: 12.5 mg/kg/injection, schedule: Q01DX028 (sc), evaluated on day 70",196 % of control
same,T/C,"dose: 12.5 mg/kg/injection, schedule: Q01DX028 (sc), evaluated on day 87",146 % of control [7 of 8 alive]
same,T/C,"dose: 12.5 mg/kg/injection, schedule: Q01DX028 (sc), evaluated on day 90","153, 171 [7 of 10 alive], 173 % of control"
same,T/C,"dose: 12.5 mg/kg/injection, schedule: Q01DX028 (sc), run until all animals had died","145, 168 [9 of 10 alive], 178, 231 % of control"
same,survivor count,"dose: 14.0 mg/kg/injection, schedule: Q01DX009 (sc)",5 of 8
same,T/C,[1],"100 [9 of 12 alive], 102 [8 of 10 alive], 105 [8 of 10 alive], 157 [9 of 12 alive], 162, 171, 202, 210 (2×), 212, 213 (2×), 216 [7 of 8 alive], 222 [7 of 8 alive], 223, 227 [9 of 10 alive], 241, 242, 325 % of control"
same,T/C,"dose: 15.0 mg/kg/injection, schedule: Q01DX028 (sc)","94 [7 of 8 alive], 118 [7 of 8 alive], 200 [7 of 8 alive], 226 % of control"
same,T/C,"dose: 20.0 mg/kg/injection, schedule: Q01DX028 (sc), evaluated on day 72",212 % of control
same,T/C,"dose: 20.0 mg/kg/injection, schedule: Q01DX028 (sc), evaluated on day 90","202, 208, 252 % of control"
same,T/C,"dose: 20.0 mg/kg/injection, schedule: Q01DX028 (sc), run until all animals had died","136, 143, 144 [9 of 10 alive], 177, 202, 205, 217, 222, 222 % of control [9 of 10 alive]"
same,T/C,"dose: 23.0 mg/kg/injection, schedule: Q01DX009 (sc)",145 % of control [7 of 8 alive]
same,T/C,[2],"114 [8 of 12 alive], 125, 128 [7 of 8 alive], 136 [7 of 8 alive], 140 (2×), 145 [11 of 12 alive], 158, 162 [8 of 10 alive], 191, 202, 207, 213, 222, 227, 232, 256, 266 [9 of 10 alive], 309 % of control"
same,survivor count,"dose: 25.0 mg/kg/injection, schedule: Q01DX009 (ip)",6 of 6
same,T/C,"dose: 25.0 mg/kg/injection, schedule: Q01DX028 (sc), evaluated on day 48",184 and 192 % of control
same,T/C,"dose: 25.0 mg/kg/injection, schedule: Q01DX028 (sc), evaluated on day 53",169 % of control [7 of 8 alive]
same,T/C,"dose: 25.0 mg/kg/injection, schedule: Q01DX028 (sc), evaluated on day 70",288 % of control
same,T/C,"dose: 25.0 mg/kg/injection, schedule: Q01DX028 (sc), evaluated on day 87",166 % of control
same,T/C,"dose: 25.0 mg/kg/injection, schedule: Q01DX028 (sc), evaluated on day 90","114, 171, 221 % of control [9 of 10 alive]"
same,T/C,"dose: 25.0 mg/kg/injection, schedule: Q01DX028 (sc), run until all animals had died","152, 207, 215, 281 % of control"
same,T/C,"dose: 30.0 mg/kg/injection, schedule: Q01DX028 (sc)","107 [6 of 8 alive], 126 [6 of 8 alive], 152 [7 of 8 alive], 202 % of control"
same,T/C,[3],"105 [9 of 10 alive], 111 [6 of 8 alive], 112, 124 [6 of 8 alive], 131 [8 of 12 alive], 147 [9 of 10 alive], 155, 172, 173, 179, 192, 214 % of control"
same,T/C,"dose: 40.0 mg/kg/injection, schedule: Q01DX028 (sc), evaluated on day 72",189 % of control
same,T/C,"dose: 40.0 mg/kg/injection, schedule: Q01DX028 (sc), evaluated on day 90","200, 213 [7 of 8 alive], 250 % of control"
same,T/C,"dose: 40.0 mg/kg/injection, schedule: Q01DX028 (sc), run until all animals had died","94, 102, 130, 134 [9 of 10 alive], 150, 158 [7 of 8 alive], 166, 177, 187 % of control"
same,T/C,"dose: 40.0 mg/kg/injection, schedule: Q01DX Z (sc)",138 % of control [9 of 10 alive]
same,survivor count,"dose: 50.0 mg/kg/injection, schedule: Q01DX009 (ip)",6 of 6
same,T/C,"dose: 50.0 mg/kg/injection, schedule: Q01DX028 (sc), evaluated on day 48",188 % of control
same,T/C,"dose: 50.0 mg/kg/injection, schedule: Q01DX028 (sc), evaluated on day 53",175 % of control
same,T/C,"dose: 50.0 mg/kg/injection, schedule: Q01DX028 (sc), evaluated on day 70",180 % of control
same,T/C,"dose: 50.0 mg/kg/injection, schedule: Q01DX028 (sc), evaluated on day 87",140 % of control
same,T/C,"dose: 50.0 mg/kg/injection, schedule: Q01DX028 (sc), evaluated on day 90","115, 135, 240 % of control"
same,T/C,"dose: 50.0 mg/kg/injection, schedule: Q01DX028 (sc), run until all animals had died",186 and 186 % of control [7 of 8 alive]
same,T/C,[4],"97 [7 of 8 alive], 127 [7 of 8 alive], 157 % of control"
same,survivor count,[4],3 of 8
same,T/C,"dose: 62.5 mg/kg/injection, schedule: Q01DX010 (sc)",131 % of control
same,T/C,"dose: 64.0 mg/kg/injection, schedule: Q01DX028 (sc)",129 % of control
same,T/C,[5],"111, 128, 139 [11 of 12 alive], 140, 142, 152 % of control"
same,survivor count,[5],6 of 12
same,survivor count,"dose: 100.0 mg/kg/injection, schedule: Q01DX009 (ip)",6 of 6 (2×)
same,T/C,"dose: 108.0 mg/kg/injection, schedule: Q01DX028 (sc)","95, 95 [8 of 12 alive], 97, 114, 128 % of control"
same,survivor count,"dose: 108.0 mg/kg/injection, schedule: Q07DX004 (sc)",7 of 12
same,survivor count,"dose: 180.0 mg/kg/injection, schedule: Q07DX004 (sc)",7 of 12
same,survivor count,"dose: 300.0 mg/kg/injection, schedule: Q07DX004 (sc)",7 of 12
same,survivor count,"dose: 500.0 mg/kg/injection, schedule: Q07DX004 (sc)",4 of 12
CNNCc1ccc(C(=O)NC(N)=O)cc1,survivor count,"dose: 400.0 mg/kg/injection, schedule: Q01DX028 (sc)",7 of 12
O=c1[nH]c(=O)n(C2CC(O)C(CO)O2)cc1F (centres undefined),T/C,[6],"111 [7 of 8 alive], 119, 122 [6 of 8 alive], 125 % of control"
same,survivor count,[6],5 of 8
same,T/C,[1],"111 [7 of 8 alive], 116, 127, 135, 138 % of control"
same,T/C,[2],"125 [7 of 8 alive], 128, 130, 138 [7 of 8 alive], 155 % of control [7 of 8 alive]"
same,T/C,[3],"122, 127, 130, 133, 182, 273 % of control"
same,T/C,[5],"97 [7 of 8 alive], 111, 113, 116, 116 [7 of 8 alive], 136 % of control"
COC1CC=C2CCN3CCC4=C(CC(=O)OC4)C23C1 (centres undefined),survivor count,"dose: 0.5 mg/kg/injection, schedule: Q01DX028 (sc)",3 of 8
same,survivor count,"dose: 1.0 mg/kg/injection, schedule: Q01DX028 (sc)",5 of 8
same,survivor count,"dose: 2.0 mg/kg/injection, schedule: Q01DX028 (sc)",3 of 8
same,survivor count,"dose: 4.0 mg/kg/injection, schedule: Q01DX028 (sc)",4 of 8
